Experimental data from publication PMC9542535.
These are yes or no findings as the source states them, for the method shown. In cells and extracts the contact can be indirect. These calls come from enrichment with a bait or labelling near it, and not all partners need be listed. For part of these data: A no says only that the protein was not detected with the bait. Where a sequence is shown, tags or fusion partners need not be part of it. Each block holds one molecule with its values, some of them ahead of it.

Tests used:
[1] = target: T1, VnfA3 with a C-terminal triple-FLAG tag (strain CAA025) (Azotobacter vinelandii) (UniProt C1DIZ6); test: affinity purification with mass spectrometry; as a2, only cultures grown in the presence of V (1 μM); in vivo formaldehyde cross-linking, anti-FLAG magnetic beads, LC-MS/MS
T1 sequence: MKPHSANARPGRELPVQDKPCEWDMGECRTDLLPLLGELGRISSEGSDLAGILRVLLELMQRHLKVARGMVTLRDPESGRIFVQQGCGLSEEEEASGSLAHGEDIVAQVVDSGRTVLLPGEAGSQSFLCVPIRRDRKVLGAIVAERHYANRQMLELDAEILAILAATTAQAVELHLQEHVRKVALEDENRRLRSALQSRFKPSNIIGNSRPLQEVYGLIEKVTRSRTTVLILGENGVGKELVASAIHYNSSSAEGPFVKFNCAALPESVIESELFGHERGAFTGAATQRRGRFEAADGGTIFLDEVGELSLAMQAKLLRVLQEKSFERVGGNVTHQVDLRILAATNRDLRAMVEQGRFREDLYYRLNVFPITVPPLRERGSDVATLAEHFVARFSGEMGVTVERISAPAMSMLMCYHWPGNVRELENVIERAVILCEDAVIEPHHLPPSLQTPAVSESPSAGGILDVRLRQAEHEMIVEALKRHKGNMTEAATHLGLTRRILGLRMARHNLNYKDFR

[2] = target: T1, VnfA3 with a C-terminal triple-FLAG tag (strain CAA025) (Azotobacter vinelandii); test: affinity purification with mass spectrometry; A. vinelandii cultures grown in the presence of V (1 μM) or in its absence (Fe-only conditions), cross-linked in vivo with 1% formaldehyde; 3xFLAG-tagged bait recovered from lysate with anti-FLAG magnetic beads; eluted proteins identified by LC-MS/MS; non-tagged wild-type strain DJ as control
[3] = target: T2, VnfA1 with a C-terminal triple-FLAG tag (strain CAA005) (Azotobacter vinelandii) (UniProt P12627); test: as above
T2 sequence: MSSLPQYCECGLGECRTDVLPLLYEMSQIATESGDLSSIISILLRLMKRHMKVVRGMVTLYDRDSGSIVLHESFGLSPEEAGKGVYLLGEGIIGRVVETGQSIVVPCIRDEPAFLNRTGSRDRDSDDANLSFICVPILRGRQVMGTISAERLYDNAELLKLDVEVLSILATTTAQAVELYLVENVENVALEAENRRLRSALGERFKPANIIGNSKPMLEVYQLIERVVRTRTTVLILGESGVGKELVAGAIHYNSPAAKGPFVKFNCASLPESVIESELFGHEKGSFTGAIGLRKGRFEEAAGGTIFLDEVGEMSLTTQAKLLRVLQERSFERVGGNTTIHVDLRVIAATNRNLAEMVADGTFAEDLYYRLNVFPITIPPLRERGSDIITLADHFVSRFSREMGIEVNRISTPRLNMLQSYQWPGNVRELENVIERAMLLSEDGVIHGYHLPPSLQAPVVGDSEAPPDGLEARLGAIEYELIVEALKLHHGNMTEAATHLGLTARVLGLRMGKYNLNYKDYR

B2: VnfA1, endogenous in A. vinelandii (protein, UniProt P12627 1-522)
chain: T2 sequence
binding [2]: binds

B3: VnfA2, endogenous in A. vinelandii (protein, UniProt C1DPS6 1-493)
chain: MGECHTDLLPLLGELGRIPSEGSDLAGILRVLLELMQRHLKMARGMVTLRDPESGRIFVQQGCGLSEEEEASGYLALGEDIVAQAVDSGRTVVLPGEAGNQSLLCVPIRRDRKVLGTIVAERHYANRRMLELDAEILAILAALTAQAVELHLQEHVRKVALEDENHRLHSALQSRFKPSSIIGSSRPLQEVHRLIEKVARSRATVLILGESGVGKELVASAIHYNGSNAEGPFVKFNCAALPESVIESELFGHEYGAFTGAATPRRGRFEAADGGTIFLDEVGELSPAMQAKLLRVLQEKSFERVGGNVTHQVDLRILAATSRDLRAMVEQSRFRGDLYYRLNVFPISVPPLRERDSDIAILAEHFVARLSSRMGIPAKRISTPAMGMLMCYHWPGNVRELENVIERAVLLCEGAVIEPHHLPPSLQTPAVSESPSAGGILDVRLGQAECELIAEALKRHKGNMTESAAHLGLTRRVLGLRMARHNLNHKEFR
binding [3]: binds | binding [2]: no binding

Continued, in another order:

binding [2]: binds
Molecule: VnfZ (Avin_47110), endogenous in A. vinelandii
binding [1]: no binding (only cells grown in the presence of V)

binding [3]: binds
B1: VnfA3, endogenous in A. vinelandii (protein, UniProt C1DIZ6 1-517)
chain: T1 sequence
